# Assay results reported in patent publication US20160244802A1, “Protein Demethylases Comprising a JMJC Domain” (The University of North Carolina at Chapel Hill, priority 2005, published 2016).
# Results are given in words; binding and its absence hold for the method and conditions named. Binding seen in cells or lysates may run through a third protein. Tags and fused reporters may be left off the sequences shown.
# B1: recombinant Flag-JHDM2A (JmjC domain-containing histone demethylase 2A) (enzyme, not shown: small tags and cut ends)
# chain: MVLTLGESWPVLVGRRFLSLSAADGSDGSHDSWDVERVAEWPWLSGTIRAVSHTDVTKKDLKVCVEFDGESWRKRRWIEVYSLLRRAFLVEHNLVLAERKSPEISERIVQWPAITYKPLLDKAGLGSITSVRFLGDQQRVFLSKDLLKPIQDVNSLRLSLTDNQIVSKEFQALIVKHLDESHLLKGDKNLVGSEVKIYSLDPSTQWFSATVINGNPASKTLQVNCEEIPALKIVDPSLIHVEVVHDNLVTCGNSARIGAVKRKSSENNGTLVSKQAKSCSEASPSMCPVQSVPTTVFKEILLGCTAATPPSKDPRQQSTPQAANSPPNLGAKIPQGCHKQSLPEEISSCLNTKSEALRTKPDVCKAGLLSKSSQIGTGDLKILTEPKGSCTQPKTNTDQENRLESVPQALTGLPKECLPTKASSKAELEIANPPELQKHLEHAPSPSDVSNAPEVKAGVNSDSPNNCSGKKVEPSALACRSQNLKESSVKVDNESCCSRSNNKIQNAPSRKSVLTDPAKLKKLQQSGEAFVQDDSCVNIVAQLPKCRECRLDSLRKDKEQQKDSPVFCRFFHFRRLQFNKHGVLRVEGFLTPNKYDNEAIGLWLPLTKNVVGIDLDTAKYILANIGDHFCQMVISEKEAMSTIEPHRQVAWKRAVKGVREMCDVCDTTIFNLHWVCPRCGFGVCVDCYRMKRKNCQQGAAYKTFSWLKCVKSQIHEPENLMPTQIIPGKALYDVGDIVHSVRAKWGIKANCPCSNRQFKLFSKPASKEDLKQTSLAGEKPTLGAVLQQNPSVLEPAAVGGEAASKPAGSMKPACPASTSPLNWLADLTSGNVNKENKEKQPTMPILKNEIKCLPPLPPLSKSSTVLHTFNSTILTPVSNNNSGFLRNLLNSSTGKTENGLKNTPKILDDIFASLVQNKTTSDLSKRPQGLTIKPSILGFDTPHYWLCDNRLLCLQDPNNKSNWNVFRECWKQGQPVMVSGVHHKLNSELWKPESFRKEFGEQEVDLVNCRTNEIITGATVGDFWDGFEDVPNRLKNEKEPMVLKLKDWPPGEDFRDMMPSRFDDLMANIPLPEYTRRDGKLNLASRLPNYFVRPDLGPKMYNAYGLITPEDRKYGTTNLHLDVSDAANVMVYVGIPKGQCEQEEEVLKTIQDGDSDELTIKRFIEGKEKPGALWHIYAAKDTEKIREFLKKVSEEQGQENPADHDPIHDQSWYLDRSLRKRLHQEYGVQGWAIVQFLGDVVFIPAGAPHQVHNLYSCIKVAEDFVSPEHVKHCFWLTQEFRYLSQTHTNHEDKLQVKNVIYHAVKDAVAMLKASESSFGKP
# Molecular target: thyroid hormone receptor (TR)
# Assay: in vitro pull-down and co-immunoprecipitation
binder,measurement,value
B1,binding,no binding
